Assay results published in patent US20110251130A1.
Results are given in words; binding and its absence hold for the method and conditions named. In cells and extracts the contact can be indirect. Some results given as binding are weak or reduced against the parent protein; the word gives no strength. Sequences can lack the tags named with a protein.

Amino acid sequences for entries named in this document (tags omitted).
UniProt P35222: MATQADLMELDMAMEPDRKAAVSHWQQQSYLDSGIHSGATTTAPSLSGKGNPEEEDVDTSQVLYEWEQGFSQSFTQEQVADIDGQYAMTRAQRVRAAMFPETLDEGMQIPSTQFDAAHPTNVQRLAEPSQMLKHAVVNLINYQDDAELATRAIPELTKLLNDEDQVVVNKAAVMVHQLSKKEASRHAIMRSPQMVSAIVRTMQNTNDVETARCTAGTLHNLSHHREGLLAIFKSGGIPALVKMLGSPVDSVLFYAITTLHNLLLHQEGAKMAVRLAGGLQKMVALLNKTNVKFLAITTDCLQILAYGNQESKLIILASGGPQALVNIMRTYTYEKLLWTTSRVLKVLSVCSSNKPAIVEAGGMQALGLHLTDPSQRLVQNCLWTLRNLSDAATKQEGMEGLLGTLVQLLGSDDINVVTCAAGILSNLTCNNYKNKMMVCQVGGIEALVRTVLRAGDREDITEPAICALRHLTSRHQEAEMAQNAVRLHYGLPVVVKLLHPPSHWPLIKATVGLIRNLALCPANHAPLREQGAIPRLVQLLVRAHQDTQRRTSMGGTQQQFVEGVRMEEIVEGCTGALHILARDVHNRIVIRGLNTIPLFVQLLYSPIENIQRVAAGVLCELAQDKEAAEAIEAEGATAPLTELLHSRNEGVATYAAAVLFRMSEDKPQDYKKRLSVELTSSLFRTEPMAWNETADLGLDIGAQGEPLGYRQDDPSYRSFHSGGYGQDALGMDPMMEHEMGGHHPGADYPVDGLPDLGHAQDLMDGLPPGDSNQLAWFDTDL

Key:
V5-tagged β-catenin [1] = target: V5-tagged β-catenin (UniProt P35222); assay: co-immunoprecipitation from lysates of cotransfected cells (FLAG-tagged WTX and β-catenin)
V5-tagged β-catenin [2] = target: V5-tagged β-catenin (UniProt P35222); assay: co-immunoprecipitation in HEK293 cells; IP anti-V5, detection anti-FLAG

| Binder | binding (V5-tagged β-catenin [1]) | binding (V5-tagged β-catenin [2]) |
| --- | --- | --- |
| FLAG-tagged WTXS1 (full-length wild type human WTX isoform) (protein, not shown: small tags and cut ends) METQKDEAAQAKGAAASGSTREQTAEKGAKNKAAEATEGPTSEPSSSGPGRLKKTAMKLFGGKKGICTLPSFFGGGRSKGSGKGSSKKGLSKSKTHDGLSEAAHGPEDVVSEGTGFSLPLPELPCQFPSSQSAHGALETGSRCKTSVAGATEKAVAEKFPSMPKPKKGLKGFFSSIRRHRKSKVTGAEQSEPGAKGPERVRARPHEHVSSAPQVPCFEETFQAPRKENANPQDAPGPKVSPTPEPSPPATEKMACKDPEKPMEACASAHVQPKPAPEASSLEEPHSPETGEKVVAGEVNPPNGPVGDPLSLLFGDVTSLKSFDSLTGCGDIIAEQDMDSMTDSMASGGQRANRDGTKRSSCLVTYQGGGEEMALPDDDDEEEEEEEEVELEEEEEEVKEEEEDDDLEYLWETAQMYPRPNMNLGYHPTTSPGHHGYMLLDPVRSYPGLAPGELLTPQSDQQESAPNSDEGYYDSTTPGFEDDSGEALGLVRRDCLPRDSYSGDALYEFYEPDDSLENSPPGDDCLYDLHGRSSEMFDPFLNFEPFLSSRPPGAMETEEERLVTIQKQLLYWELRREQLEAQEARAREAHAREAHAREAYTREAYGREAYAREAHTWEAHGREARTREAQAREVRCRETQVRETQARQEKPVLEYQMRPLGPSVMGLAAGVSGTSQISHRGITSAFPTTASSEPDWRDFRPLEKRYEGTCSKKDQSTCLMQLFQSDAMFEPDMQEANFGGSPRRAYPTYSPPEDPEEEEVEKEGNATVSFSQALVEFTSNGNLFSSMSCSSDSDSSFTQNLPELPPMVTFDIADVERDGEGKCEENPEFHNDEDLAASLEAFELGYYHKHAFNNYHSRFYQGLPWGVSSLPRYLGLPGLHPRPPPAAMALNRRSRSLDTAETLEMELSNSHLVQGYLESDELQAQQEDSDEEDEEEEEGEWSRDSPLSLYTEPPGAYDWPAWAPCPLPVGPGPAWISPNQLDRPSSQSPYRQATCCIPPMTMSISLSVPESRAPGESGPQLARPSHLHLPMGPCYNLQPQASQSMRARPRDVLLPVDEPSCSSSSGGFSPSPLPQAKPVGITHGIPQLPRVRPEHPQPQPTHYGPSSLDLSKERAEQGASLATSYSSTAMNGNLAK | binds | binds |
| FLAG-tagged WTXS2 (shorter splice isoform of human WTX lacking residues 50-327) (protein, not shown: small tags and cut ends) METQKDEAAQAKGAAASGSTREQTAEKGAKNKAAEATEGPTSEPSSSGPGCGDIIAEQDMDSMTDSMASGGQRANRDGTKRSSCLVTYQGGGEEMALPDDDDEEEEEEEEVELEEEEEEVKEEEEDDDLEYLWETAQMYPRPNMNLGYHPTTSPGHHGYMLLDPVRSYPGLAPGELLTPQSDQQESAPNSDEGYYDSTTPGFEDDSGEALGLVRRDCLPRDSYSGDALYEFYEPDDSLENSPPGDDCLYDLHGRSSEMFDPFLNFEPFLSSRPPGAMETEEERLVTIQKQLLYWELRREQLEAQEARAREAHAREAHAREAYTREAYGREAYAREAHTWEAHGREARTREAQAREVRCRETQVRETQARQEKPVLEYQMRPLGPSVMGLAAGVSGTSQISHRGITSAFPTTASSEPDWRDFRPLEKRYEGTCSKKDQSTCLMQLFQSDAMFEPDMQEANFGGSPRRAYPTYSPPEDPEEEEVEKEGNATVSFSQALVEFTSNGNLFSSMSCSSDSDSSFTQNLPELPPMVTFDIADVERDGEGKCEENPEFHNDEDLAASLEAFELGYYHKHAFNNYHSRFYQGLPWGVSSLPRYLGLPGLHPRPPPAAMALNRRSRSLDTAETLEMELSNSHLVQGYLESDELQAQQEDSDEEDEEEEEGEWSRDSPLSLYTEPPGAYDWPAWAPCPLPVGPGPAWISPNQLDRPSSQSPYRQATCCIPPMTMSISLSVPESRAPGESGPQLARPSHLHLPMGPCYNLQPQASQSMRARPRDVLLPVDEPSCSSSSGGFSPSPLPQAKPVGITHGIPQLPRVRPEHPQPQPTHYGPSSLDLSKERAEQGASLATSYSSTAMNGNLAK | binds | binds |
